Results are given in words; binding and its absence hold for the method and conditions named. Some results given as binding are weak or reduced against the parent protein; the word gives no strength. Values belong to the binder of their own block, whether it stands above or below them.
Legend:
[1] = biological target: recombinant human IL-1α (human) (UniProt P01583); assay: SPR (Biacore)
[2] = biological target: recombinant human IL-1β (human) (UniProt P01584); assay: SPR (Biacore)

Sequences of proteins named here, by UniProt entry; tags and fusion partners are left off. Residues count along the entry.
UniProt P01583, residues 113-271: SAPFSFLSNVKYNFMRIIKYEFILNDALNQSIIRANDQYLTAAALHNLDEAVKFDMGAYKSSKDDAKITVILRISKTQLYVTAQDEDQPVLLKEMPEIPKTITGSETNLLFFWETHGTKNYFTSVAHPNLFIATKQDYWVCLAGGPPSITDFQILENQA
UniProt P01584, residues 117-269: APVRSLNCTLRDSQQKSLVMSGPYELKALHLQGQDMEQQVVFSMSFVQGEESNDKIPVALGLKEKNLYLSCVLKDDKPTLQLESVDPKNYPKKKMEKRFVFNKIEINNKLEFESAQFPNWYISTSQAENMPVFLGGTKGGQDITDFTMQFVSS

binding [1]: binds
B1: chimeric 3D12.E3 antibody (3D12.E3-VH-hCγ1 / 3D12.E3-VL-hCκ) (antibody, human IgG1, kappa, V domains shown)
VH: QIQLVQSGPELKKPGETVKISCKASGYTFRNYGMNWVKQAPGKDLKRMAWINTYTGESTYADDFKGRFAFSLETSASTAYLQINNLKNEDTATYFCARGIYYYGSSYAMDYWGQGTSVTVSS
VL: NIQMTQTTSSLSASLGDRVTISCRASQDISNCLNWYQQKPDGTVKLLIYYTSRLHSGVPSRFSGSGSGTDYSLTISNLEQEDIATYFCQQGKTLPYAFGGGTKLEINR

binding [2]: binds
B2: chimeric 13F5.G5 antibody (13F5.G5-VH-Cγ1 / 13F5.G5-VL-Cκ) (antibody, human IgG1, kappa, V domains shown)
VH: QVQLQQSGAELVRPGSSVKISCKASGYAFSSYWMNWVKQRPGQGLEWIGQIYPGDGDTNYNGKFKGKATLTADKSSSTSYMQLSGLTSEDSAMYFCVRFPTGNDYYAMDYWGQGTSVTVSS
VL: NIVLTQSPASLAVSLGQRATISCRASESVDSYGNSYMHWYQQKPGQPPKLLIYLASNLESGVPARFSGSGSRTDFTLTIDPVEADDAATYYCQQNNEDPFTFGSGTKLEIKR

— patent US20070071675A1
